In the supplement of paper PMC7024190 one finds log data, which are given here for 51 compounds.

Where a name gives a salt, the structure may show the parent alone. Some of the results follow. Single values are uncertain here, since repeats match poorly.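 The cells were human embryonic kidney cells carrying a Renilla luciferase gene, driven by the HSV-TK promoter, on a plasmid put in briefly by transfection. This is the first-round screen of about ten thousand compounds, looking for ones that raise reporter output.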

The subject of the assay is HEK 293FT. Put plainly: log relative Renilla luciferase luminescence (reporter expression vs reference, reference not stated) (log (base not stated)); higher = higher recombinant reporter expression. Conditions: 10 µM; time after transfection 48 h.
As for `CCOC(=O)C(C)(C)Oc1ccc(Cl)cc1` [clofibrate], the log was 0.138.
The value for `CC(=O)O[C@H]1CC[C@]2(C)C3CC[C@@]4(C)[C@H](C5CC(C6OC6(C)C)OC5O)CC[C@]4(C)C3=CC[C@H]2C1(C)C` (stereo partly specified) [turraeanthin] was -0.0272.
The value for `CCC(NC(C)C)C(O)c1ccc(O)c(O)c1` (stereo unspecified) [isoetharine mesylate] was -0.00861; that for `CCC(Cc1c(I)cc(I)c(N)c1I)C(=O)O` (stereo unspecified) [iopanic acid] was 0.135; that for `CN1CCc2cccc3c2[C@H]1Cc1ccc(O)c(O)c1-3` [apomorphine hydrochloride] was -0.146.
In the case of `O=C1C=C2CC3(O)COc4c(ccc(O)c4O)C3=C2C=C1O` (stereo unspecified) [hematein], the log is 0.13.
The value for `C[C@]12CC[C@@H]3c4ccc(O)cc4CC[C@H]3[C@@H]1CC[C@@H]2OC(=O)CCC1CCCC1` [estradiol cypionate] was -0.16.
Take `CCCCCCCCCCCCCCCC(=O)NCCO` [palmidrol]: the log was -0.0309.
On to `CN1CCN(C2=Nc3cc(Cl)ccc3Nc3ccccc32)CC1` [clozapine], for which the log is -0.671.
As for `C=C1C2CC[C@@]3(C)[C@H](c4ccoc4)OC(=O)C[C@]13O[C@H]1CC(O)C(C)(C)C(CC(=O)OC)[C@@]21C` (stereo partly drawn) [3alpha-hydroxy-3-deoxyangolensic acid methyl ester], the figure is 0.261; as for `O=C(O)c1ccccc1Nc1ccccc1` [n-phenylanthranilic acid], -0.0578.
On to `Nc1ncnc(Nc2ccc(Cl)cc2)n1` [chlorazanil hydrochloride], for which the log is 0.0025.
As for `CC(=O)O[C@H]1CC[C@]2(C)C3=C(CC[C@H]2C1(C)C)[C@]1(C)CC[C@H]([C@H](C)CCC=C(C)C)[C@@]1(C)CC3` [lanosterol acetate], the figure is 0.047.
The value for `CC1CCc2c(N3CCC(O)CC3)c(F)cc3c(=O)c(C(=O)O)cn1c23` (stereo unspecified) [nadifloxacin] was -1.18; that for `Clc1ccc(COC(Cn2ccnc2)c2ccc(Cl)cc2Cl)c(Cl)c1` (stereo unspecified) [miconazole nitrate] was -0.158; that for `Cc1cc(=O)n(-c2ccccc2)n1C` [antipyrine] was -0.175.
The value for `NC12CC3CC(CC(C3)C1)C2` [amantadine hydrochloride] was -0.0794; that for `CO[C@H]1O[C@@H]2O[C@@]3(C)CC[C@H]4[C@H](C)CC[C@@H]([C@H]1C)[C@@]24OO3` [artemether] was -0.18; that for `O=c1c2ccccc2oc2ccccc12` [xanthone] was 0.0557.
`O=C(O)c1cc(O)c2c(c1)[C@@H]([C@H]1c3cc(C(=O)O)cc(O)c3C(=O)c3c(O[C@@H]4O[C@H](CO)[C@@H](O)[C@H](O)[C@H]4O)cccc31)c1cccc(O[C@@H]3O[C@H](CO)[C@@H](O)[C@H](O)[C@H]3O)c1C2=O` [sennoside b]: the log was -0.0266.
As for `CC(=O)N[C@@H](CCC(N)=O)C(=O)O` [aceglutamide], the log was -0.00598.
As for `COc1ccc(-c2c(O)c3c(OC)c4c(cc3oc2=O)OC(C)(C)C=C4)cc1` [robustic acid], the log was -0.0979.
As for `CC(=O)NO` [acetohydroxamic acid], the figure is -0.0905.
The value for `CN1CCCN=C1COC(=O)C(O)(c1ccccc1)C1CCCCC1` (stereo unspecified) [oxyphencyclimine hydrochloride] was 0.144.
The value for `CC(C)(Oc1ccc(Cl)cc1)C(=O)O` [clofibric acid] was -0.0111; that for `CCCCCCCCCCC[C@@H](C[C@@H]1OC(=O)[C@H]1CCCCCC)OC(=O)[C@H](CC(C)C)NC=O` [orlistat] was -0.0451; that for `COc1ccc(-c2oc3ccccc3c(=O)c2OC)cc1` [3,4'-dimethoxyflavone] was 0.162.
Take `COc1cc(C/C=C/c2ccccc2)c(OC)cc1O` [violastyrene]: the log stood at 0.0205.
For `O=C1O[C@H](CO)[C@@H](O)[C@H](O)[C@H]1O` [gluconolactone], the log is -0.0668.
The value for `CCC(=O)OCC(=O)[C@@]1(OC(=O)CC)[C@H](C)CC2C3C([C@@H](O)C[C@@]21C)[C@@]1(C)C=CC(=O)C=C1C[C@H]3Cl` (stereo partly specified) [alclometazone dipropionate] was 0.0664; that for `C=CCCCCCCCCCCCC(O)CC(O)COC(C)=O` (stereo unspecified) [avocadene acetate] was 0.0756.
Regarding `CC(C)(S)[C@@H](N)C(=O)O` [penicillamine], the log came out at 0.0906.
As for `O=C(O)C1CSCN1` (stereo unspecified) [timonacic], the figure is -0.0647; as for `COc1cc(OC)c(C(=O)CCCN2CCCC2)c(OC)c1` [buflomedil hydrochloride], 0.0529.
Regarding `N#CC(c1ccc(Cl)cc1)c1c(Cl)cc(-n2ncc(=O)[nH]c2=O)cc1Cl` (stereo unspecified) [diclazuril], the log turned out to be 0.0933.
With `O.O.O.O.O=C([O-])CC(O)(CC(=O)[O-])C(=O)[O-].[Li+].[Li+].[Li+]` [lithium citrate], the log was -0.0299.
In the case of `O=C[C@H](O)[C@H](O)CO` [erythrose], the log was 0.0375.
With `CCN1C(=O)NC(c2ccccc2)C1=O` (stereo unspecified) [ethotoin], the log was -0.0757.
As for `COc1ccccc1N1CCN(CC(O)COc2cccc3ccccc23)CC1` (stereo unspecified) [naftopidil], the log is 0.00605.
For `CN1CCC(=C2c3ccccc3CC(=O)c3sccc32)CC1` [ketotifen fumarate], the log was -1.39.
As for `CC[C@H](CC[C@@H](C)[C@H]1CC[C@H]2[C@@H]3CC=C4C[C@@H](O)CC[C@]4(C)[C@H]3CC[C@]12C)C(C)C` [beta-sitosterol], the figure is 0.0923; as for `CCCCC[C@H](CC(=O)O)C(=O)O` [nonic acid], 0.0824.
Take `CCCN(CCC)C(=O)C(CCC(=O)O)NC(=O)c1ccccc1` (stereo unspecified) [proglumide]: the log is -0.0248.
With `CC(C)(Sc1cc(C(C)(C)C)c(O)c(C(C)(C)C)c1)Sc1cc(C(C)(C)C)c(O)c(C(C)(C)C)c1` [probucol], the log was -0.101.
The value for `COc1cc(-c2coc3cc(OC)c(OC)c(OC)c3c2=O)cc(OC)c1OC` [irigenin trimethyl ether] was -0.0193; that for `C[C@]12CCC3c4ccc(OC(=O)c5ccccc5)cc4CCC3C1CCC2=O` (stereo partly specified) [estrone benzoate] was 0.0403; that for `Cn1ccnc1S` [methimazole] was -0.106.
For `Nc1c(Br)cc(Br)cc1CN[C@H]1CC[C@H](O)CC1` [ambroxol hydrochloride], the log was -0.0464.
As for `Oc1ccc(Cl)c2cccnc12` [cloxyquin], the figure is -0.179.
For the compound `CCC(=O)c1ccc(O)cc1` [paroxypropione], the log amounted to 0.0404.
As for `COCC1=C(C(=O)OC(C)OC(=O)OC(C)C)N2C(=O)[C@@H](NC(=O)/C(=N\OC)c3csc(N)n3)[C@H]2SC1` (stereo partly specified) [cefpodoxime proxetil], the figure is 0.0792.
